Laboratory results as given in PubChem BioAssay AID504834 (National Center for Advancing Translational Sciences (NCATS), 2011).
Hit rate of the full screen: of about 320,000 compounds, about 22,000 (6.9%) were called active. Inconclusive results, whose numbers are uncertain, are shown with a selection of clear calls. The call rests on the fitted dose curve; in most records, active means well fitted inhibition curve with a large enough effect; inconclusive means small, poorly fitted or top-dose-only effect, or another doubt; inactive means no such curve, though single readings can be large or run the other way. Where the call is inconclusive, the potency comes from a doubtful curve fit.

Assay: Primary qHTS for delayed death inhibitors of the malarial parasite plastid, 96 hour incubation
Conditions: P. falciparum luciferase reporter growth; series mostly up to 28.7 µM; activity change, negative = inhibition: at the top concentration
Summary of the method: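 Two-generation exposure (96 h) targets delayed-death phenotype. Reporter parasites carrying integrated firefly luciferase, in red cells at 2% hematocrit and 0.05% parasitemia final, kept at 37 C, 5% CO2; luminescence loss indicates inhibition.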
On the % scale 0 is the no-effect control and ±100 the full control effect; potency means the concentration at half of the fitted maximal effect.

SMILES | Potency | activity change, negative = inhibition
CCOC(=O)c1c(NC(=O)C2c3ccccc3Oc3ccccc32)sc(C(N)=O)c1C | inconclusive: 10.4 µM [inhibitor, single point] | 
O=C1c2ccccc2NC2CCCCCN12 (stereo not drawn) | inconclusive: 18.5 µM [inhibitor, partial curve, poor fit] | 
COc1ccc(NS(=O)(=O)c2cc(NC(=O)c3ccc(F)cc3)ccc2OC)cc1 | inconclusive: 11.7 µM [inhibitor, single point] | 
CCOC(=O)C1CCCN(Cc2nc(Cc3ccccc3Cl)no2)C1 (stereo not drawn) | inconclusive: 18.5 µM [inhibitor, single point] | 
CCOC(=O)c1ccc(NCCc2ccc(OC)c(OC)c2)c(N)c1 | inconclusive: 2.62 µM [inhibitor, single point] | 
CCn1c(SCC(=O)Nc2ccc(C)cc2)nc2nc3c(cc2c1=O)CCCC3 | active: 14.7 µM | 
O=C(c1cc2cc(Cl)ccc2o1)N1CCCC1 | inconclusive: 16.5 µM [inhibitor, single point] | 
Cc1ccccc1SCC(=O)Nc1cc(S(=O)(=O)N2CCOCC2)ccc1N1CCOCC1 | inconclusive: 4.15 µM [inhibitor, partial curve, poor fit] | 
COC(=O)c1ccc(Cl)c(NC(=O)Cc2ccccc2[N+](=O)[O-])c1 |  | inactive: 19.3%
COc1ccc(N2CCN(C(=O)c3ccc(Cl)c(S(=O)(=O)N4CCCC4)c3)CC2)cc1 | inconclusive: 11.7 µM [inhibitor, single point] | 
COc1ccccc1C(OC(=O)c1ccco1)C(=O)NCc1ccc(F)cc1 (stereo not drawn) |  | inactive: -6.53%
O=C(O)CC(c1ccc(Cl)cc1)N1Cc2ccccc2C1=O (stereo not drawn) | inconclusive: 4.15 µM [inhibitor, single point] | 
COC(=O)c1cc(C(=O)N2CCN(c3ccccc3OC)CC2)cc([N+](=O)[O-])c1 |  | inactive: 37.6%
O=C(Cn1nc(-c2ccccc2)c2ccccc2c1=O)Nc1ccc2c(c1)nc1n2CCOC1 | inconclusive: 13.1 µM [inhibitor, partial curve, poor fit] | 
Oc1ccccc1/C=N/n1cnn(Cc2ccccc2Cl)c1=S |  | inactive: 17.4%
CCOC(=O)C1=C(CNCc2ccc(C)cc2)NC(=O)NC1c1cc(C)ccc1C (stereo not drawn) | active: 3.29 µM | 
CC(=O)N1CCC(=NNc2ccnc3cc(Cl)ccc23)CC1 | active: 2.62 µM | 
CCC(C)[C@H]1COCCS(=O)(=O)N1Cc1ccc(Br)cc1 (stereo partly drawn) | inconclusive: 18.5 µM [inhibitor, single point] | 
COc1ccc(S(=O)(=O)N2CCC(n3cnc4ccccc43)CC2)cc1 |  | inactive: -57%
CC(=O)N/C(=C\c1ccccc1)C(=O)OC(C)C(=O)c1ccccc1 (stereo not drawn) |  | inactive: 29.9%
CN(CC(=O)Nc1cc(S(=O)(=O)N2CCOCC2)ccc1Cl)C1CCS(=O)(=O)C1 (stereo not drawn) |  | inactive: 5.38%
COc1ccc(CN2CN(C3CCCC3)CSC2=S)cc1 | inconclusive: 16.5 µM [inhibitor, partial curve, poor fit] | 

SMILES | Potency | activity change, negative = inhibition
COc1cccc(C2/C(=C(/O)c3ccc4c(c3)OCO4)C(=O)C(=O)N2CCN2CCOCC2)c1 (stereo not drawn) | inconclusive: 11.7 µM [inhibitor, single point] | 
COc1ccc(C(=O)NC2CCN(CC(=O)Nc3cccc(OC)c3)CC2)cc1 | inconclusive: 10.4 µM [inhibitor, single point] | 
O=C(CC1CCCCC1)NCc1ccco1 | inconclusive: 0.0928 µM [inhibitor, full curve, poor fit] | 
COC(=O)[C@@H]1C[C@H]2CC[C@H](O)C[C@H]2N1Cc1ccc(C(C)(C)C)cc1 | inconclusive: 18.5 µM [inhibitor, single point] | 
CCOc1ccc(NC(=O)c2cccc3c2C(=O)N(CC2CCCO2)C3)cc1 (stereo not drawn) | inconclusive: 10.4 µM [inhibitor, partial curve] | 
CCNc1nc(NC(C)(C)C)nc(SCC(N)=O)n1 | inconclusive: 9.28 µM [inhibitor, single point] | 
Cc1cc(SCC(=O)c2cc(C)n(C)c2C)nc2ccccc12 | inconclusive: 9.28 µM [inhibitor, single point] | 
O=C(Nc1cccc2nsnc12)c1ccc(-c2cccc(Cl)c2)o1 |  | inactive: 15.4%
CN(C)S(=O)(=O)N1CCC(Oc2cccc(C(=O)N3CCCCCC3)c2)CC1 | inconclusive: 9.28 µM [inhibitor, partial curve] | 
COc1ccc(C(=O)Nc2ccc3c(c2)OCCO3)cc1 | inconclusive: 13.1 µM [inhibitor, partial curve, poor fit] | 
CN(C)CCCNS(=O)(=O)c1ccc(NC2CCCCCC2)c([N+](=O)[O-])c1 | inconclusive: 18.5 µM [inhibitor, single point] | 
Cc1cc(C)c(S(=O)(=O)c2ccccc2C)c(OCCN(C)C)n1 |  | inactive: -9.2%
COc1ccc(C(CC(=O)O)NC(=O)Cc2ccccc2)cc1 (stereo not drawn) | active: 2.94 µM | 
NC(=O)NC(CC(=O)NNC(=O)c1ccccn1)c1ccccc1Cl (stereo not drawn) | inconclusive: 18.5 µM [inhibitor, single point] | 
O=C(C1=C[C@H](C2CCCCC2)C[C@H](OCc2ccc(CO)cc2)O1)N1CCOCC1 | inconclusive: 9.28 µM [inhibitor, partial curve, poor fit] | 
Cc1nc2ccccc2c(=O)n1NC(=O)c1cccc(Cl)c1 |  | inactive: 23.5%
COc1cc(N2CCOCC2)ccc1C=C(C#N)C#N | inconclusive: 11.7 µM [inhibitor, partial curve, poor fit] | 
CCC(=O)N1CCc2cc(S(=O)(=O)NC(Cc3ccccc3)C(=O)Nc3nccs3)ccc21 (stereo not drawn) | inconclusive: 11.7 µM [inhibitor, partial curve, poor fit] | 
Cc1cccc(Nc2ncnc(N)c2[N+](=O)[O-])n1 | inconclusive: 14.7 µM [inhibitor, partial curve, poor fit] | 
Fc1ccc2c(c1)C(c1ccc(N3CCOCC3)cc1)=NNC(c1cccs1)=N2 | inconclusive: 16.5 µM [inhibitor, single point] | 
O=S(=O)(NCCc1ccc(Cl)cc1)c1cccc2cccnc12 | active: 9.28 µM | 
Cc1ccc(NC(=S)NC(=O)C2CCCC2)cc1C | inconclusive: 9.28 µM [inhibitor, single point] | 
COc1ccc(/C=C/C(=O)OCC(=O)N2CC(=O)Nc3ccccc32)cc1 | inconclusive: 14.7 µM [inhibitor, partial curve, poor fit] | 

Random excerpt: 3 compounds from above, in no set order.
SMILES | Potency | activity change, negative = inhibition
CN(C)S(=O)(=O)N1CCC(Oc2cccc(C(=O)N3CCCCCC3)c2)CC1 | inconclusive: 9.28 µM [inhibitor, partial curve] | 
O=C(CC1CCCCC1)NCc1ccco1 | inconclusive: 0.0928 µM [inhibitor, full curve, poor fit] | 
COC(=O)[C@@H]1C[C@H]2CC[C@H](O)C[C@H]2N1Cc1ccc(C(C)(C)C)cc1 | inconclusive: 18.5 µM [inhibitor, single point] | 

Further structures:

SMILES | Potency | activity change, negative = inhibition
CCC(C(=O)NCCc1ccc(OC)cc1OC)n1nc(C)n2c(cc3occc32)c1=O (stereo not drawn) |  | inactive: 2.82%
CN(C(=O)CC1C(=O)NCCN1Cc1ccc2ccccc2c1)C1CCOCC1 (stereo not drawn) | inconclusive: 11.7 µM [inhibitor, partial curve] | 
N#Cc1cccc(S(=O)(=O)NCc2nnc3ccccn23)c1 |  | inactive: -19.7%
COc1ccc2[nH]c(C)c(C(=O)CN3CCN(C/C=C/c4ccccc4)CC3)c2c1 | active: 8.28 µM | 
CC(C)Cc1nn2c(N)c(/C=C3\C=Nc4ccccc43)c(=O)nc2s1 | inconclusive: 13.1 µM [inhibitor, single point] | 
COCCCNC(=O)CN1CCN(Cc2ccccc2Cl)C1=O | inconclusive: 18.5 µM [inhibitor, single point] | 
Cc1ccc(-c2c3c(=O)n(C)c(=O)n(C)c3cn2Cc2cccnc2)cc1 | inconclusive: 14.7 µM [inhibitor, single point] | 
COc1ccc2[nH]cc(CCNC(=O)Cc3ccc(Br)cc3)c2c1 | inconclusive: 14.7 µM [inhibitor, partial curve, poor fit] | 
COc1ccc(C(=O)NCC2(c3ccccc3)CCOCC2)cc1 |  | inactive: 10.1%
Cc1nc2c(-c3ccc(F)cc3)c(C)nn2c(C)c1CCC(=O)Nc1ccccc1F | active: 9.28 µM | 
CC(=O)N1CCOc2ccc(S(=O)(=O)Nc3cccc(C)c3)cc21 | inconclusive: 0.0329 µM [inhibitor, full curve, poor fit] | 
CC(=O)c1sc(NC(=O)c2cccs2)nc1C |  | inactive: 26.4%
COn1c2c(c3c4no[n+]([O-])c4ccc31)CCCC2 |  | inactive: -16.5%
CCOC(=O)c1cc2sc(C)cc2n1CC(=O)N1CCN(C(=O)c2ccco2)CC1 | inconclusive: 10.4 µM [inhibitor, single point] | 
C[C@]12C(=O)N(c3ccc(F)cc3)C(=O)N1[C@@H]1c3ccccc3OC[C@@H]1[C@H]2c1ccccc1 | inconclusive: 13.1 µM [inhibitor, single point] | 
CC1CCCC(NC(=O)CN2C(=O)NC(c3ccccc3)(c3ccccc3)C2=O)C1C (stereo not drawn) | inconclusive: 6.57 µM [inhibitor, partial curve] | 
CC1CC(C)(C)NC(=S)N1CCC(=O)NCCc1ccc(Cl)cc1 (stereo not drawn) | inconclusive: 4.65 µM [inhibitor, partial curve, poor fit] | 
O=C(Nc1ccccc1C(=O)Nc1ccncc1)c1ccc([N+](=O)[O-])cc1 |  | inactive: 32.1%
O=C(Nc1cc(C(F)(F)F)ccc1N1CCOCC1)C1=COCCO1 | inconclusive: 9.28 µM [inhibitor, single point] | 
COc1ccc(CCn2c(=N)c(C(=O)NC3CCCCC3)cc3c(=O)n4ccccc4nc32)cc1 | inconclusive: 0.657 µM [inhibitor, full curve, poor fit] | 
C=CCn1c(O)c(C(C)=Nc2ccc(N(CC)CC)cc2)c(=O)[nH]c1=O | inconclusive: 11.7 µM [inhibitor, single point] | 
COc1cccc(C(=O)C2CCCN(Cc3cccc(C)n3)C2)c1 (stereo not drawn) | inconclusive: 3.7 µM [inhibitor, full curve, poor fit] | 
